Laboratory results from PMC6996959.
These are yes or no findings as the source states them, for the method shown. Binding seen in cells or lysates may run through a third protein. Some results given as binding are weak or reduced against the parent protein; the word gives no strength.

The chains behind the UniProt entries cited, without tags or fusion partners.
UniProt Q9QZL0: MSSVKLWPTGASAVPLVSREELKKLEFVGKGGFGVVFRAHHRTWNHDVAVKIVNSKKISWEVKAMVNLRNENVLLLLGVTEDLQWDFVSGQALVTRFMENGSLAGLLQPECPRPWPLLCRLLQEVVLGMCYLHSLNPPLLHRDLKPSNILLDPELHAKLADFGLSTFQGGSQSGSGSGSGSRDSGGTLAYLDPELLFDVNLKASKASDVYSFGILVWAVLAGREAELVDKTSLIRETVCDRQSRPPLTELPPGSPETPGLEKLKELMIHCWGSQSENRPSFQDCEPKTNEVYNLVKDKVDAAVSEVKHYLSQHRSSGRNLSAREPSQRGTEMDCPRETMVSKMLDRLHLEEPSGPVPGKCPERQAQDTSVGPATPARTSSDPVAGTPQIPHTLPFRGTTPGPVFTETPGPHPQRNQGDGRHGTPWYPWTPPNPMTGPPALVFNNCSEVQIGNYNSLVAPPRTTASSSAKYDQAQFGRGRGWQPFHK

Molecular target: p62/SQSTM1 (endogenous, mouse heart) (mouse (endogenous in mouse heart)) (UniProt Q64337)
Experiment: co-IP; co-immunoprecipitation from young and aged mouse hearts, sham, ischemia (30 min) or ischemia followed by 4 hr of reperfusion; also from aged hearts after Nec-1, Ad-sh-p62 or metformin and from RIP3 KO hearts; which protein was precipitated is not told in the text shown

With “receptor-interacting protein kinase 3 (endogenous, mouse heart) (from UniProt Q9QZL0 1-486)” the binding was “binds”.
